Experimental data reported in patent publication US20230192797A1 (published 2023).
Results are given in words; binding and its absence hold for the method and conditions named. Some entries that bind do so weakly or less than the wild type.

Protein sequences, listed by entry. Tags and fused reporters are not part of them. Residues count along the entry.
UniProt Q9NZQ7, residues 19-290: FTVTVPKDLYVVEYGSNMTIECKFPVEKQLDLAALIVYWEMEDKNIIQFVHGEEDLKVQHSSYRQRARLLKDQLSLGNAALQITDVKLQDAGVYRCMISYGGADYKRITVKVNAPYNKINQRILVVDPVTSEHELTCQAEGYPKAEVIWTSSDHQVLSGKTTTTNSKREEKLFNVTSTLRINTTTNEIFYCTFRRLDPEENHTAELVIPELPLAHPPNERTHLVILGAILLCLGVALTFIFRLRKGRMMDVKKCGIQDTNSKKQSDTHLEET

Target: PD-L1 on the surface of CHO-PD-L1 cells (UniProt Q9NZQ7 19-290, limits assumed)
Test: flow cytometry (FACS) on CHO-PD-L1 cells

B1: 794-h1-71 (antibody, human IgG1, kappa, V domains shown)
VH: QVQLQQSGPGLVKPSQTLSLTCAVSGDSITSGYWNWIRKFPSRGLEYMGYISYSGSTYYNPFLKSRISINRDTSKNQYYLQLNSVTPEDTAVYYCAKMGDWLAWFAYWGQGTLVTVSS
VL: EIVMTQSPPTLSLSPGERVTLSCKSSQSLLYSSNQKNSLAWYQQKPGQAPRLLIYWASTRESGIPARFSGSGSGTDFTLTISSLQPEDFAVYYCQQYYGYPYTFGQGTKLEIKR
notes: also called humanized PD-L1 antibody
For B1, the binding was “binds”.
